Values of other authors as cited in US20140200276A1 (iCeutica, Inc., priority 2009, published 2014).

The chains behind the UniProt entries cited, without tags or fusion partners. Residues count along the entry.
UniProt P02768, 25-609: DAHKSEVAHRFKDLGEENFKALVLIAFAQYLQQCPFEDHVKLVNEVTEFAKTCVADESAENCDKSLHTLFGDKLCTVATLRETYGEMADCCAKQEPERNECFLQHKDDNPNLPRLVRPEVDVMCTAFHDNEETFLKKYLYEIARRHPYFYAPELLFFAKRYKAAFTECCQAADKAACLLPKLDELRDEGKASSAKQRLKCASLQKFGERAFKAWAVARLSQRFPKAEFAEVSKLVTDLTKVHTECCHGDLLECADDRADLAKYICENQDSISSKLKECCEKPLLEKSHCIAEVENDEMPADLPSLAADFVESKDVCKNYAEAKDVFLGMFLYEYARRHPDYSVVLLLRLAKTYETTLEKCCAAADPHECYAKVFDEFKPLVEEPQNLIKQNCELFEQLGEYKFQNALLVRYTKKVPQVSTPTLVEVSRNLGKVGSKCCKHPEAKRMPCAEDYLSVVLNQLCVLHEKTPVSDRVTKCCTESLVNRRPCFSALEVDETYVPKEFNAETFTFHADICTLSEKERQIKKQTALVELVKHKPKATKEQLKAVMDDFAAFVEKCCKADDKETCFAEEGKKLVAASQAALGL

Columns and labels:
albumin = albumin (Homo sapiens, UniProt P02768); details: at therapeutic levels
[1] = current commercial formulations of naproxen

- albumin-bound (albumin): greater than 99%
- Tmax of current commercial formulations [1]: 1 to 4 h
SMILES: COc1ccc2cc([C@H](C)C(=O)O)ccc2c1 [naproxen]
